Reference: PubChem BioAssay AID1347076 (National Center for Advancing Translational Sciences (NCATS), 2019)
The whole screen tested about 400,000 compounds, of which about 13,000 (3.2%) were called active. Inconclusive means that the source gave no clear call. Such entries were picked first, then a sample of the others. The call rests on the fitted dose curve; in most records, active means well fitted cell-killing curve with a large enough effect; inconclusive means small, poorly fitted or top-dose-only effect, or effect the other way; inactive means flat fitted curve, though single readings scatter. A potency beside an inconclusive call is a rough fit, not a confirmed value.

Assay: qHTS assay for MDR1-selective chemotherapeutics: Primary screen using the drug-selected MDR subline cells KB-V1; further: nearly all actives have a fitted effect of over 60% in size
Conditions: KB-V1 MDR cells viability, CellTiter-Glo, 72 h; activity change, negative = cytotoxicity: at 46.1 µM (top of the series)
Method in brief: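 KB-V1 cells (P-gp-expressing MDR subline of KB-3-1) in phenol-red-free DMEM with 10% FBS were exposed to library compounds over a concentration series for 72 h at 37 degrees C. Viability read by CellTiter-Glo luminescence; concentration-effect curves fitted after normalization.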
On the % scale 0 is the no-effect control and ±100 the full control effect; potency means the concentration at half of the fitted maximal effect.

Which Potency does the source give for `COc1ccc(S(=O)(=O)N2CCN(c3cc(-c4ccccc4)nc4ncnn34)CC2)cc1` here?
Its Potency is active: 23.1 µM.

For `CCOCCCNC(=O)c1c(N)n(-c2ccc3c(c2)OCO3)c2nc3ccccc3nc12`, which “activity change, negative = cytotoxicity” value is on record?
Its value is inactive: -24.9%.

Which Potency does the source give for `CC(C)N1CCN(c2ccc(OC[C@H]3CO[C@](Cn4cncn4)(c4ccc(Cl)cc4Cl)O3)cc2)CC1` here?
The Potency was inconclusive: 7.31 µM [cytotoxic, partial curve].

Which Potency does the source give for `Cn1c2c(c(=O)n(C)c1=O)CN(CCN1CCNCC1)CN2` here?
Its Potency is inconclusive: 29.1 µM [rising, single point].

With `Cc1ccc(S(=O)(=O)N2CCN(C(=O)COC(=O)c3ccccc3Cl)CC2)c(C)c1` as the compound, how does the “activity change, negative = cytotoxicity” value read?
The value was inactive: -1.41%.

Which Potency does the source give for `O=C(CCl)N1c2ccccc2OCC1c1ccccc1` (stereo not drawn) here?
Its Potency is inconclusive: 2.31 µM [cytotoxic, single point].

For `CCc1ccc(N=C2NC(=O)/C(=C/c3cc(Br)c(OCC(=O)O)c(OC)c3)S2)cc1`, which Potency is on record?
Its Potency is inconclusive: 11.6 µM [rising, partial curve, poor fit].

Which Potency does the source give for `Cc1ccccc1Nc1c(-c2ccccn2)nc2c(C)cccn12` here?
The Potency was inconclusive: 5.8 µM [cytotoxic, full curve, poor fit].

Which Potency does the source give for `Cc1cc(NC(=O)CSc2nccn2-c2cccc(C)c2C)no1` here?
The Potency was active: 10.3 µM.

With `Cc1cc(C)cc(N(CC(=O)NC2CCCC2)C(=O)CCC(=O)Nc2cc(C)on2)c1` as the compound, how does the Potency read?
Its Potency is inconclusive: 29.1 µM [cytotoxic, partial curve, poor fit].

Which Potency does the source give for `Cc1ccccc1NC(=O)c1ccc(CN(c2ccccc2)S(=O)(=O)c2ccccc2)cc1` here?
Its Potency is active: 10.3 µM.

For `CN(c1cccc(NC(=O)c2ccc(N(C)S(=O)(=O)c3ccccc3)cc2)c1)S(C)(=O)=O`, which Potency is on record?
Its Potency is inconclusive: 18.4 µM [cytotoxic, single point].

With `Cc1cc(C)nc(N(C#N)Cc2ccc(Br)cc2)n1` as the compound, how does the Potency read?
The Potency was inconclusive: 16.4 µM [cytotoxic, single point].

With `CCOC(=O)Cn1c(=O)n(CC2CCCO2)c2nc(-c3ccc(C)cc3)nc(C(N)=O)c21` (stereo not drawn) as the compound, how does the Potency read?
Its Potency is inconclusive: 5.8 µM [cytotoxic, partial curve].

Which Potency does the source give for `O=C(Nc1cccc(F)c1)c1ccc(Cn2cc([N+](=O)[O-])cn2)o1` here?
The Potency was active: 13 µM.

For `O/N=C1\CC/C(=N\O)c2nn(-c3ccc(Cl)cc3Cl)nc21`, which Potency is on record?
The Potency was inconclusive: 18.4 µM [cytotoxic, single point].

With `Cc1cc(C(=O)NCc2ccc(F)cc2)n(-c2ccccc2)n1` as the compound, how does the “activity change, negative = cytotoxicity” value read?
The value was inactive: -25%.

For `O=C(COC(=O)c1ccc([N+](=O)[O-])o1)Nc1ccc(N2CCOCC2)cc1`, which Potency is on record?
The Potency was inconclusive: 23.1 µM [rising, single point].

For `COc1ccccc1NC(=O)Nc1cccc(C)n1`, which Potency is on record?
Its Potency is inconclusive: 20.6 µM [cytotoxic, single point].

Which “activity change, negative = cytotoxicity” value does the source give for `COc1ccc(CN(Cc2cc3cc4c(cc3[nH]c2=O)OCO4)C(=O)NC2CCCCC2)cc1` here?
Its value is inactive: -16.7%.

With `COc1ccccc1/C=C/c1nc2ccccc2n1C(C)C` as the compound, how does the “activity change, negative = cytotoxicity” value read?
Its value is inactive: 3.46%.

Which Potency does the source give for `Cc1cnc(CNC(=O)c2ccc3oc(C(C)C)nc3c2)[nH]1` here?
The Potency was inconclusive: 20.6 µM [rising, single point].

Which Potency does the source give for `COc1ccccc1CN(C)CC(=O)NC(=O)NC1CCCCC1` here?
Its Potency is inconclusive: 29.1 µM [cytotoxic, single point].

With `Cc1onc(-c2ccccc2Cl)c1C(=O)Nc1cccc2cccnc12` as the compound, how does the Potency read?
Its Potency is active: 11.6 µM.

With `CCOC(=O)C(NC(=O)CCl)(Nc1sc(C)c(CC)c1C#N)C(F)(F)F` (stereo not drawn) as the compound, how does the Potency read?
The Potency was inconclusive: 18.4 µM [cytotoxic, single point].

With `CCN(CC)C(=O)n1c(Cc2ccccc2)nc2ccccc21` as the compound, how does the Potency read?
The Potency was inconclusive: 14.6 µM [cytotoxic, partial curve, poor fit].

Which Potency does the source give for `COc1ccc(C2c3ccsc3CCN2C(=O)C(C)(C)C)cc1` (stereo not drawn) here?
The Potency was inconclusive: 6.51 µM [cytotoxic, partial curve].

With `CCOC(=O)c1ccccc1NC(=O)CSc1nc2cn(CC)nc2c(=O)n1Cc1ccc(Cl)cc1` as the compound, how does the “activity change, negative = cytotoxicity” value read?
The value was inactive: -11.4%.

Which Potency does the source give for `CC(C)c1cc(NCC2CCCO2)n2c(nc3ccccc32)c1C#N` (stereo not drawn) here?
The Potency was inconclusive: 25.9 µM [cytotoxic, single point].

For `COc1ccc(N2CCN(C(=O)COC(=O)[C@@H](NC(=O)OCc3ccccc3)C(C)C)CC2)cc1`, which Potency is on record?
The Potency was active: 6.51 µM.

For `Cc1cccc(N2CCN(c3ccc(NC(=O)/C=C(/C(=O)O)c4ccccc4)cc3)CC2)c1`, which Potency is on record?
Its Potency is inconclusive: 29.1 µM [rising, single point].

For `COc1ccc(N2CCN(C(=O)C3CCN(S(=O)(=O)c4cccs4)CC3)CC2)cc1`, which Potency is on record?
The Potency was inconclusive: 0.92 µM [rising, full curve, poor fit].

With `Cc1cc(N2C(=O)C3C4CC(C(Br)C4Br)C3C2=O)no1` (stereo not drawn) as the compound, how does the activity change, negative = cytotoxicity read?
Its activity change, negative = cytotoxicity is inconclusive: 13.4%.

With `COc1ccc(S(=O)(=O)NCc2ccccn2)cc1NC(=O)c1ccc(Cl)cc1` as the compound, how does the Potency read?
Its Potency is inconclusive: 29.1 µM [cytotoxic, single point].

For `COc1cc(NC(=O)c2ccc(COCC(F)(F)F)cc2)cc(OC)c1OC`, which Potency is on record?
The Potency was inconclusive: 14.6 µM [cytotoxic, single point].

Which “activity change, negative = cytotoxicity” value does the source give for `Cc1ccc(CN2CCSc3ccc(C(=O)N4CCN(c5ccccc5)CC4)cc32)cc1` here?
Its value is inactive: 17.9%.

For `COc1ccc(S(=O)(=O)N(C)c2ccc(C(=O)NCc3ccccn3)cc2)cc1`, which Potency is on record?
Its Potency is inconclusive: 13 µM [cytotoxic, partial curve].

For `CC1=CC(c2ccc(Cl)cc2)n2nc(NC(=O)c3ccccc3)nc2N1` (stereo not drawn), which Potency is on record?
The Potency was inconclusive: 9.2 µM [cytotoxic, partial curve, poor fit].

For `Cc1c(N2C(=O)c3ccccc3C2(O)c2ccccc2)c(=O)n(-c2ccccc2)n1C` (stereo not drawn), which Potency is on record?
The Potency was inconclusive: 0.0046 µM [cytotoxic, full curve, poor fit].

With `CCOC(=O)Cc1[nH]nc2c1C(Cc1ccccc1)C(C#N)=C(N)O2` (stereo not drawn) as the compound, how does the “activity change, negative = cytotoxicity” value read?
The value was inactive: 6.77%.

With `S=C(NNc1cccc(Cl)c1)NC1CCCCC1` as the compound, how does the “activity change, negative = cytotoxicity” value read?
The value was inactive: -29.5%.

With `O=c1c2cc3c(cc2n(Cc2ccc(Cl)cc2)c(=O)n1Cc1nc(-c2ccccc2)no1)OCO3` as the compound, how does the “activity change, negative = cytotoxicity” value read?
Its value is inactive: -18.9%.

With `COc1cc(NC(=O)COC(=O)CNC(=O)c2cc(C)cc(C)c2)c(C)cc1[N+](=O)[O-]` as the compound, how does the Potency read?
The Potency was inconclusive: 10.3 µM [rising, partial curve].
